The target of one assay is Flag-ING4 (human) (UniProt Q9UNL4). In words: co-IP; lysate of HEK293T cells temporarily expressing Flag or Flag-ING4, anti-Flag antibody, protein G agarose; western blot of endogenous partner (anti-NOLC1). (In western blotting, separated proteins are transferred to a membrane and probed.)
In assay [1] the target is T1, GST-GNL3 (glutathione S-transferase-tagged GNL3) (human) (UniProt Q9BVP2).
T1 sequence: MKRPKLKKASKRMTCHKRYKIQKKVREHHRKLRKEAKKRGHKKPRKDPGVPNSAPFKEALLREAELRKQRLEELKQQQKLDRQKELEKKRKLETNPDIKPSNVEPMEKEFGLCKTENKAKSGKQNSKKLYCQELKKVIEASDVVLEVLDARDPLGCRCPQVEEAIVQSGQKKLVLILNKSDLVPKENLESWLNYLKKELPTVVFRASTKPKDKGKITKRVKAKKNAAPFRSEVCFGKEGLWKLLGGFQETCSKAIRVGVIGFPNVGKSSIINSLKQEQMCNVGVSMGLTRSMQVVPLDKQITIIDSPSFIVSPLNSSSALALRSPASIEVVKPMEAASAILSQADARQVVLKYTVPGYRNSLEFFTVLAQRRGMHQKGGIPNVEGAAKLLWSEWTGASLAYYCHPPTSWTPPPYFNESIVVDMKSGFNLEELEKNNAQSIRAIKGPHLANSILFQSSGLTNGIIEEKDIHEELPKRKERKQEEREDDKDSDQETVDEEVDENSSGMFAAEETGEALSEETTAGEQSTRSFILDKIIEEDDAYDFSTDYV
The assay is described as follows: pull-down; GST, GST-GNL3 or GST-NOLC1 beads incubated with His-ING4; eluted with 10 mM reduced glutathione; western blot with anti-His antibody; both purified.

Another assay addresses T2, GST-NOLC1 (human) (UniProt Q14978).
T2 sequence: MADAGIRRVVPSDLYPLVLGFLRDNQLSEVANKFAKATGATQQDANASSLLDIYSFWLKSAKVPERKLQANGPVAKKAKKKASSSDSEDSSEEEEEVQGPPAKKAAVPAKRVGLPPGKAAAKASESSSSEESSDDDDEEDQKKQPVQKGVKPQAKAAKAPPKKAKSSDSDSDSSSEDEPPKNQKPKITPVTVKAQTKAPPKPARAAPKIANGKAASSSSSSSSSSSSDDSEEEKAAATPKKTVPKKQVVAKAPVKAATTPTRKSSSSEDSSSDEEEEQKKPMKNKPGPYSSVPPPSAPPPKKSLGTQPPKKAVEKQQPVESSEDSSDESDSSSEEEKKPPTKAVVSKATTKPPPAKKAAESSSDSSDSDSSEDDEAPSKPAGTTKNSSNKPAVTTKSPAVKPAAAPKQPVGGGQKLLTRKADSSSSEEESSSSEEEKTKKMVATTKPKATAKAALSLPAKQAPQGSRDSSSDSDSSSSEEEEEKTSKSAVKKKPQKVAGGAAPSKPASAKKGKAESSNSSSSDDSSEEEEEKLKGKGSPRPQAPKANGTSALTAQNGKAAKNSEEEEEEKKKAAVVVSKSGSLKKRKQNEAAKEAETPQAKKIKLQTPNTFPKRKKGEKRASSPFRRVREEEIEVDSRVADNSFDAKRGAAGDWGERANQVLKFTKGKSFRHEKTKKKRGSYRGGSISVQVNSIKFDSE
The assay is described as above.

The target of assay [2] is ING4 on beads (competitive assay) (human) (UniProt Q9UNL4). In words: pull-down; competitive assay on ING4 beads: a constant amount of NOLC1 with increasing amounts of GNL3, and a constant amount of GNL3 with increasing amounts of NOLC1; both purified.
Assay [3] has as its target GFP-ING4 (green fluorescent protein-ING4) (human) (UniProt Q9UNL4). The assay is described as follows: co-IP; lysate of HAP1 cells stably expressing GFP or GFP-ING4 incubated with nanobody beads against GFP; western blot with anti-GNL3 antibody.

No constants are given. Whether binding was seen depends on the method and setting. For some of these results: Binding seen in cells or lysates may run through a third protein. Some binding calls cover weakened binding; strength is not graded here. For some of these results: Sequences can lack the tags named with a protein.

Consider “GNL2, endogenous in HEK293T (from UniProt Q13823 1-731)”, for which, in the assay with Flag-ING4 (human), the binding entry is “binds”.
In the case of His-ING4 (from UniProt Q9UNL4 1-249), the binding entry (in assay [1]; with GST-NOLC1 (human)) was “binds” each time.

B1: NOLC1, endogenous in HEK293T (protein, UniProt Q14978 1-699)
chain: MADAGIRRVVPSDLYPLVLGFLRDNQLSEVANKFAKATGATQQDANASSLLDIYSFWLKSAKVPERKLQANGPVAKKAKKKASSSDSEDSSEEEEEVQGPPAKKAAVPAKRVGLPPGKAAAKASESSSSEESSDDDDEEDQKKQPVQKGVKPQAKAAKAPPKKAKSSDSDSDSSSEDEPPKNQKPKITPVTVKAQTKAPPKPARAAPKIANGKAASSSSSSSSSSSSDDSEEEKAAATPKKTVPKKQVVAKAPVKAATTPTRKSSSSEDSSSDEEEEQKKPMKNKPGPYSSVPPPSAPPPKKSLGTQPPKKAVEKQQPVESSEDSSDESDSSSEEEKKPPTKAVVSKATTKPPPAKKAAESSSDSSDSDSSEDDEAPSKPAGTTKNSSNKPAVTTKSPAVKPAAAPKQPVGGGQKLLTRKADSSSSEEESSSSEEEKTKKMVATTKPKATAKAALSLPAKQAPQGSRDSSSDSDSSSSEEEEEKTSKSAVKKKPQKVAGGAAPSKPASAKKGKAESSNSSSSDDSSEEEEEKLKGKGSPRPQAPKANGTSALTAQNGKAAKNSEEEEEEKKKAAVVVSKSGSLKKRKQNEAAKEAETPQAKKIKLQTPNTFPKRKKGEKRASSPFRRVREEEIEVDSRVADNSFDAKRGAAGDWGERANQVLKFTKGKSFRHEKTKKKRGSYRGGSISVQVNSIKFDSE
B1: the binding entry with Flag-ING4 (human) is recorded as “binds”.

B2: NOLC1 (competitive assay) (protein, UniProt Q14978 1-699)
chain: MADAGIRRVVPSDLYPLVLGFLRDNQLSEVANKFAKATGATQQDANASSLLDIYSFWLKSAKVPERKLQANGPVAKKAKKKASSSDSEDSSEEEEEVQGPPAKKAAVPAKRVGLPPGKAAAKASESSSSEESSDDDDEEDQKKQPVQKGVKPQAKAAKAPPKKAKSSDSDSDSSSEDEPPKNQKPKITPVTVKAQTKAPPKPARAAPKIANGKAASSSSSSSSSSSSDDSEEEKAAATPKKTVPKKQVVAKAPVKAATTPTRKSSSSEDSSSDEEEEQKKPMKNKPGPYSSVPPPSAPPPKKSLGTQPPKKAVEKQQPVESSEDSSDESDSSSEEEKKPPTKAVVSKATTKPPPAKKAAESSSDSSDSDSSEDDEAPSKPAGTTKNSSNKPAVTTKSPAVKPAAAPKQPVGGGQKLLTRKADSSSSEEESSSSEEEKTKKMVATTKPKATAKAALSLPAKQAPQGSRDSSSDSDSSSSEEEEEKTSKSAVKKKPQKVAGGAAPSKPASAKKGKAESSNSSSSDDSSEEEEEKLKGKGSPRPQAPKANGTSALTAQNGKAAKNSEEEEEEKKKAAVVVSKSGSLKKRKQNEAAKEAETPQAKKIKLQTPNTFPKRKKGEKRASSPFRRVREEEIEVDSRVADNSFDAKRGAAGDWGERANQVLKFTKGKSFRHEKTKKKRGSYRGGSISVQVNSIKFDSE
On to B2, for which, in assay [2], the binding entry is “binds”.

B3: GNL3, endogenous in HAP1 (protein, UniProt Q9BVP2 1-549)
chain: MKRPKLKKASKRMTCHKRYKIQKKVREHHRKLRKEAKKRGHKKPRKDPGVPNSAPFKEALLREAELRKQRLEELKQQQKLDRQKELEKKRKLETNPDIKPSNVEPMEKEFGLCKTENKAKSGKQNSKKLYCQELKKVIEASDVVLEVLDARDPLGCRCPQVEEAIVQSGQKKLVLILNKSDLVPKENLESWLNYLKKELPTVVFRASTKPKDKGKITKRVKAKKNAAPFRSEVCFGKEGLWKLLGGFQETCSKAIRVGVIGFPNVGKSSIINSLKQEQMCNVGVSMGLTRSMQVVPLDKQITIIDSPSFIVSPLNSSSALALRSPASIEVVKPMEAASAILSQADARQVVLKYTVPGYRNSLEFFTVLAQRRGMHQKGGIPNVEGAAKLLWSEWTGASLAYYCHPPTSWTPPPYFNESIVVDMKSGFNLEELEKNNAQSIRAIKGPHLANSILFQSSGLTNGIIEEKDIHEELPKRKERKQEEREDDKDSDQETVDEEVDENSSGMFAAEETGEALSEETTAGEQSTRSFILDKIIEEDDAYDFSTDYV
Turning to B3, the binding result in assay [3] was “binds”.

B4: GNL3 (competitive assay) (protein, UniProt Q9BVP2 1-549)
chain: MKRPKLKKASKRMTCHKRYKIQKKVREHHRKLRKEAKKRGHKKPRKDPGVPNSAPFKEALLREAELRKQRLEELKQQQKLDRQKELEKKRKLETNPDIKPSNVEPMEKEFGLCKTENKAKSGKQNSKKLYCQELKKVIEASDVVLEVLDARDPLGCRCPQVEEAIVQSGQKKLVLILNKSDLVPKENLESWLNYLKKELPTVVFRASTKPKDKGKITKRVKAKKNAAPFRSEVCFGKEGLWKLLGGFQETCSKAIRVGVIGFPNVGKSSIINSLKQEQMCNVGVSMGLTRSMQVVPLDKQITIIDSPSFIVSPLNSSSALALRSPASIEVVKPMEAASAILSQADARQVVLKYTVPGYRNSLEFFTVLAQRRGMHQKGGIPNVEGAAKLLWSEWTGASLAYYCHPPTSWTPPPYFNESIVVDMKSGFNLEELEKNNAQSIRAIKGPHLANSILFQSSGLTNGIIEEKDIHEELPKRKERKQEEREDDKDSDQETVDEEVDENSSGMFAAEETGEALSEETTAGEQSTRSFILDKIIEEDDAYDFSTDYV
On to B4, for which the binding result in assay [2] is recorded as “binds”.

Values taken from article PMC6872537.
